# Primary screen of a compound library

Chains of the proteins cited; added tags and fusions are not shown.
UniProt E9BF75, entry or part of it: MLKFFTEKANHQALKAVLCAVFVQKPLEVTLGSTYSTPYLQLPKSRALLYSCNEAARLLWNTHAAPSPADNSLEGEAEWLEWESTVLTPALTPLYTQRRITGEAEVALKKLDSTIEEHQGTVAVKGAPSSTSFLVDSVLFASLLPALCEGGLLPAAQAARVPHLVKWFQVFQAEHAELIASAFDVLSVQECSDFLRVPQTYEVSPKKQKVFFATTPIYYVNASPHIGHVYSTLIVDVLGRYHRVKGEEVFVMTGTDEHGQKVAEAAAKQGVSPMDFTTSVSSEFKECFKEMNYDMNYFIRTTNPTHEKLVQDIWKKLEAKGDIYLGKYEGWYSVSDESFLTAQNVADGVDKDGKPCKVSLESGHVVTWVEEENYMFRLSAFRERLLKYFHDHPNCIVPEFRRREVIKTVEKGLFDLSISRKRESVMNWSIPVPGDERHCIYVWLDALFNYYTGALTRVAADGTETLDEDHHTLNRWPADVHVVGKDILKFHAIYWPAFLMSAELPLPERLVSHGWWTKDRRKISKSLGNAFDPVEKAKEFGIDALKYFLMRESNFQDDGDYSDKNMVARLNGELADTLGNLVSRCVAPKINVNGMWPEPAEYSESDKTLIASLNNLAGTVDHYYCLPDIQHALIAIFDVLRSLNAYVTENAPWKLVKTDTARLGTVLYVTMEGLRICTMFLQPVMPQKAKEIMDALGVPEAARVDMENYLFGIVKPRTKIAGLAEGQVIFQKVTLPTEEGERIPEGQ

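Methionyl-tRNA synthetase (putative), Leishmania donovani (UniProt E9BF75). Primary screen of methionyl-tRNA synthetase; the read-out is not stated. The test concentration is not given. The values are filed as inhibition. About 68,000 compounds were tested under these conditions; 0.035% (about 24) showed 50% or more at least once.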

All values are in %.
The controls that fix the scale are not given in the record; negative values are as filed.
The compounds are a random part of those screened.

SMILES,Inhibition
O=C(Cc1ccco1)N1C[C@H]2CCC[C@@]2(COc2cccnc2)C1,17.37%
C[C@@H]1CN(CC(C)(C)N2CCOCC2)C[C@@]1(O)C1CC1,5.128%
CN(C)C(=O)c1ccc(N2CCC3(CCC(=O)N(CCO)C3)CC2)nc1,3.621%
O=S(=O)(CCCS(=O)(=O)c1ccc2c(c1)OCCCO2)c1ccccc1,11.02%
CCOC(=O)[C@H]1[C@@H](O)C(=O)N(C)C12CCN(C(=O)OC)CC2,5.135%
CN(C)C(=O)Cn1cc(C#N)c(=O)c2cc(Br)ccc21,9.971%
CN(Cc1n[nH]c(=O)n1Cc1cccs1)S(C)(=O)=O,13.04%
CCc1nnc(C(C)N2CCCN(C(=O)Oc3ccccc3)CC2)o1 (stereo not shown),-27.46%
Cc1nn(C)cc1C1=NS(=O)(=O)N(C)C(C(=O)Nc2ccc(Cl)cc2)=C1,0%
CC(=O)N1CC2(CCN(C(=O)c3ccoc3)C2)C1,14.81%
Cc1cc(C(=O)N[C@H](C)c2onc(-c3cccnc3)c2C(=O)O)c(C)o1,11.28%
CC(O)CN1CCC(CNCc2cccc(Cl)c2)CC1 (stereo not shown),14.42%
CN1CCCc2cc(-c3cncn3CCNC3CCS(=O)(=O)C3)ccc21 (stereo not shown),16.27%
CCn1ncnc1CN1CCC(CNC(=O)c2cccc(C)c2)C1 (stereo not shown),15.21%
CCSCc1ccc(C(=O)N2CCCN(CC(N)=O)CC2)cc1,-11.17%
COCCN1CC2(CCCN(c3ncnc4[nH]cnc34)C2)CCC1=O (stereo not shown),5.498%
COCCCC1CCCCN1Cc1cn2cc(C)ccc2n1 (stereo not shown),7.43%
O=C(NCCS(=O)(=O)N1CCN(c2ncccn2)CC1)C1CC1,-1.977%
Cc1nn(C)c(N2CCOCC2)c1CNC1COc2ccccc2C1 (stereo not shown),4.789%
CCc1nnc(CN(C)c2nccc(CCC(F)(F)F)n2)o1,18.79%
N#Cc1cnc2ccccc2c1N1CCC(C(=O)O)CC1,11.65%
CCN1CC2(CC1=O)CN(C(=O)c1ccsc1)CCN(C(=O)N(C)C)C2 (stereo not shown),14.38%
COc1ccc(CNC(=O)NC(C)Cn2cccn2)cc1O (stereo not shown),18.06%
Cc1cc(NC(=O)CN2CCn3c(nnc3C(C)C)C2)no1,6.25%
CC(C)N1CCC(c2cnc(-c3cn[nH]c3)cn2)CC1,16.56%
CSCC(C)(O)CNC(=O)Nc1ccc(C)cc1Br (stereo not shown),5.155%
CC(C)(C)NC(=O)N1CCC(Oc2ccc(C(F)(F)F)cn2)CC1,13.47%
CN(C(=O)Cn1nc(-c2ccc(Br)cc2)ccc1=O)C1CCS(=O)(=O)C1 (stereo not shown),14.24%
CCOC(=O)C1CN(S(=O)(=O)C2CC2)Cc2ncn(CC)c21 (stereo not shown),5.764%
O=C(NCc1csc2ccc(Cl)cc12)c1cc2n(n1)CCNC2,5.573%
c1ccc2c(c1)COC1(CCCC1)N2,0.813%
Cc1ncc(CN2CCCC(c3nc4ccccc4n3C(C)C)C2)s1 (stereo not shown),10.36%
CC(C)c1ocnc1C(=O)NC1(c2cccc(F)c2)CCOCC1,9.317%
CC(NC(=O)N1CCC(CO)CC1)c1csc2ccccc12 (stereo not shown),6.015%
CNC(=O)CC1CC2(CCN(S(C)(=O)=O)CC2)c2ccccc21 (stereo not shown),6.25%
C[S+](C)[c-]1c(=O)[nH]c(=O)n(CCc2ccc(F)cc2)c1=O,9.164%
CC(CCc1ccco1)NC(=O)Nc1cc(C(F)(F)F)c[nH]c1=O (stereo not shown),18.9%
Cn1ncc2c(NCC3CCCN3c3cccnn3)ncnc21 (stereo not shown),14.04%
O=C(NCCc1cccs1)[C@]12COC[C@H]1CN(Cc1ccncc1)C2,8.403%
Cc1csc(CCNC(=O)c2ccc(N(C)C)c(F)c2)n1,10.47%
CCN1CC[C@@]2(C(=O)N(C)C)CCN(C(=O)Cc3ccccc3)CC[C@@H]12,4.444%
CCc1noc(-c2cccc(NC(=O)C(C)(C)C)c2)n1,5.115%
CCCn1nc2c(cc1=O)CN(CC(=O)Nc1nnc(C)s1)CC2,10.8%
CC(=O)N1CCCN(C(=O)c2oc(Br)cc2C)CC1,9.783%
O=C(O)C1(Oc2cccc(F)c2)CCN(C2CCOCC2)CC1,9.14%
Cc1noc(CCCC(=O)Nc2ncccc2Br)n1,9.218%
COCCC(=O)Nc1cnn(COc2ccc(F)cc2Cl)c1,21.59%
CCO[C@@H]1CCN(c2ccc(C)nn2)[C@@H]1Cc1cnn(C)c1,16.35%
Cn1cc(CN2CCCC3(CCN(C(=O)c4ccoc4)C3)C2)cn1 (stereo not shown),10.48%
Cc1ccc(OCC(=O)NC2CC2)nc1,9.22%
COCc1nc2cc(NCc3nc(C)cs3)ccc2o1,13.74%
O=C(c1cc2c(F)cccc2[nH]1)N1CCCCC1Cn1cccn1 (stereo not shown),15.06%
Cc1nc(CN2CCCC(NCCCc3ccccc3)C2)no1 (stereo not shown),18.31%
CN(Cc1ccc(Cl)s1)C(=O)CN(C)C1CCCc2ccccc21 (stereo not shown),10.22%
Cn1cccc1C(=O)N1CCN2C[C@H](Oc3cccnc3)C[C@H]2C1,6.25%
Cc1n[nH]c(C)c1NC(=O)CN1CCCC1c1noc(C(C)C)n1 (stereo not shown),3.704%
CC(=O)N1CCN(Cc2ccc(C(F)(F)F)cc2F)CC(O)C1 (stereo not shown),10.05%
OC(CN1CCN(Cc2ccc(F)cc2)CC1)C1CC1 (stereo not shown),13.3%
CC(=O)N1CCC1c1nc(-c2ccc(C)s2)no1 (stereo not shown),5.814%
COCCN1CC(C(=O)N(C)Cc2csc(C)n2)CC1=O (stereo not shown),4.416%
Cc1n[nH]c(-c2ccc(NC(=O)C(C)N3CCN(C)CC3)cc2)n1 (stereo not shown),9.948%
O=C(c1cc[nH]n1)N1CCC(c2cc(Nc3ccccn3)n[nH]2)CC1,16.77%
CC(C)CN1CC[C@@H]2[C@H](CC1)N(S(C)(=O)=O)CCS2(=O)=O,18.91%
CCC1(CO)CCCN(C(=O)c2cc(COc3cccc(F)c3)[nH]n2)C1 (stereo not shown),21.49%
COc1ccccc1-n1c(C)cc(CNC(=O)NC(C)C)c1C,11.08%
CC(C)OCc1nn(C)c2c1CN(Cc1cccs1)CC2,4.156%
Cc1nc(C)n(C2CCCN(C(=O)CCOc3cccc(F)c3)C2)n1 (stereo not shown),7.123%
O=C(c1ccc(F)cc1)N1CCOC(c2nc(-c3ncccn3)no2)C1 (stereo not shown),20.34%
Cc1cc(C)n(CCC(=O)N2CCCC(c3cc(C(N)=O)[nH]n3)C2)n1 (stereo not shown),11.96%
c1cc(-c2nnn3c2COC(CNCC2CCOCC2)C3)ccn1 (stereo not shown),0.7519%
CCN(C)c1ncnc2c1CCN(CC1CCOC1)CC2 (stereo not shown),17.03%
Cc1[nH]ccc1C(=O)N1CCCC(c2nccn2Cc2cscn2)C1 (stereo not shown),11.85%
CCCC(C)CN1CCC(n2cc(CCCO)nn2)CC1 (stereo not shown),13.27%
Cc1noc(C)c1CS(=O)(=O)C(C)C(=O)N(C)c1ccccc1 (stereo not shown),15.57%
Cc1nnc2n1CCN(CC(=O)NC(C)c1cccc3ccccc13)C2 (stereo not shown),7.483%

Some entries from above, unchanged:

{"smiles": "Cc1n[nH]c(C)c1NC(=O)CN1CCCC1c1noc(C(C)C)n1", "stereo": "stereo not shown", "Inhibition": 3.704}
{"smiles": "CC(C)N1CCC(c2cnc(-c3cn[nH]c3)cn2)CC1", "Inhibition": 16.56}
{"smiles": "O=C(NCCS(=O)(=O)N1CCN(c2ncccn2)CC1)C1CC1", "Inhibition": -1.977}
{"smiles": "Cc1cc(NC(=O)CN2CCn3c(nnc3C(C)C)C2)no1", "Inhibition": 6.25}
{"smiles": "Cc1noc(C)c1CS(=O)(=O)C(C)C(=O)N(C)c1ccccc1", "stereo": "stereo not shown", "Inhibition": 15.57}

Source: ChEMBL document CHEMBL3988442, “University of Dundee, Small-Polar-MMV Screening Library” (2021).